This assay is described as follows: qHTS Assay for Lipid Storage Modulators in Drosophila S3 Cells.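 For cell number change: cells counted by Cell Tracker Red CMTPX staining in the red channel.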 Particulars: BODIPY lipid droplet fluorescence, 18-24 h; for cell number change: measured here: cell count max response, cells fed with added oleic acid. The method, boiled down:
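Laser-scanning cytometry quantifies lipid droplet accumulation (500–530 nm total intensity; droplet/cell object ratio) in oleic acid-fed (400 uM added) Drosophila S3 cells treated with a concentration series. 20 uM Triacsin C defined 100% inhibition.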
Background: qHTS replaces the single test concentration by a dilution series.

The mark [1] stands for this setting: measured here: lipid fluorescence (Fed channel) AC50, cells fed with added oleic acid.
The mark [2] stands for this setting: measured here: cell number channel AC50, cells fed with added oleic acid.

Here are results for 40 compounds from PubChem BioAssay AID2685 (National Center for Advancing Translational Sciences (NCATS), 2010).

This is one part of the list. Shown are side measurements of this screen, not its main read-out; they come without a call. The list favours compounds with an active or inconclusive main result. Potencies come from curve fits of mixed quality, noted in brackets.

What is called AC50 is the concentration at which the activity in the assay is half-maximal. A lower AC50 goes with greater potency. On to `CCCCC1=NN(C(=O)c2ccco2)C(O)(C(F)(F)F)C1` (centres undefined), for which the cell number change is -17.3%. Further, under setting [1], the AC50 is 0.651 µM [falling, full curve, poor fit].
As for `COc1ccc(C2CC(c3ccc(F)cc3)=NN2c2ccccc2)cc1OC` (centres undefined), the cell number change turned out to be 15.5%. Further, the AC50 under setting [1] was 20.6 µM [falling, single point].
As to `CCN1CCN(C(=O)/C=C\C(=O)O)CC1`, the cell number change was determined as 9.01%.
For the compound `CCOc1cc(/C=N/NC(=O)c2cccc([N+](=O)[O-])c2)ccc1OS(=O)(=O)c1ccccc1`, the cell number change was -12.2%. Under setting [1], the AC50 was 10.3 µM [falling, single point].
Turning to `Cc1cccc(OC(C)C(=O)Nc2nccs2)c1` (centres undefined), the cell number change is -2.89%. Moreover, the AC50 under setting [1] is 0.00517 µM [rising, full curve, poor fit].
For `COCCCn1c(C)nnc1SCC(=O)Nc1cccc(C)c1`, the cell number change was -1.32%. Besides, the AC50 under setting [1] was 29.1 µM [rising, single point].
Consider `COc1ccccc1CNCC(O)(c1ccc(Cl)cc1)c1ccc(Cl)cc1`, for which the cell number change was -64.3%. In addition, the AC50 under setting [2] is 29.1 µM [falling, single point].
In the case of `Cn1cc(S(=O)(=O)N2CCOCC2)cc1C(=O)Nc1cccc(Cl)c1`, the AC50 under setting [1] is 8.2 µM [falling, partial curve].
As for `O=C(c1ccccc1)c1ccc2nc(N3CCCCC3)c3nncn3c2c1`, the cell number change is -3.87%. The AC50 under setting [1] was 20.6 µM [falling, single point].
Take `CCS(=O)(=O)N1CCC(NC(=O)C(Cc2cccc(OC)c2OC)NC(C)=O)CC1` (centres undefined): the cell number change turned out to be 9.71%. In addition, the AC50 under setting [1] was 20.6 µM [rising, partial curve, poor fit].
For the compound `Cc1cc(C(=O)Nc2nncs2)oc1C`, the cell number change stood at 10.2%. The AC50 under setting [1] is 10.3 µM [rising, partial curve].
Consider `COc1ccc(CSc2cccc3cccnc23)cc1[N+](=O)[O-]`, for which the cell number change is -5.06%. The AC50 under setting [1] is 0.0184 µM [rising, full curve].
With `Cc1ccccc1Cn1c(CN2CCc3ccccc3C2)nc2c1c(=O)n(C)c(=O)n2C`, the cell number change was 7.1%. Also, under setting [1], the AC50 is 1.64 µM [rising, full curve, poor fit].
For the compound `CC1CCCCC12NC(=O)N(CC(=O)Nc1cccnc1Cl)C2=O` (centres undefined), the AC50 under setting [2] was 6.51 µM [rising, single point].
Turning to `Nn1c(SCC(=O)Nc2ccc(F)c(F)c2)nnc1C1CCCCC1`, under setting [2], the AC50 is 6.51 µM [rising, single point].
On to `C#CCN1C(=O)S/C(=C/c2cc(C)n(CC)c2C)C1=O`, for which the cell number change is -11.6%. Also, under setting [1], the AC50 was 0.0731 µM [falling, full curve, poor fit].
Consider `O=C(O)Cc1sc(Nc2ccc(Cl)cc2)nc1-c1cccs1`, for which the cell number change was -39.9%. In addition, under setting [2], the concentration at half-maximal activity (AC50) is 29.1 µM [falling, single point]. Also, the AC50 under setting [1] was 4.11 µM [falling, single point].
For the compound `CC(NC(=O)c1cc(S(=O)(=O)N2CCOCC2)ccc1F)c1ccc(-n2ccnc2)cc1` (centres undefined), the cell number change was 36.6%. The AC50 under setting [2] is 0.164 µM [rising, full curve, poor fit]. Besides, the AC50 under setting [1] is 0.461 µM [rising, full curve].
For the compound `COc1ccc(-c2c(C)c3ccc(O)cc3oc2=O)cc1`, under setting [2], the AC50 is 0.0326 µM [rising, full curve, poor fit].
Turning to `COc1ccc(C(=O)COc2ccc3ccc(=O)oc3c2)c(OC)c1`, the cell number change was -38.4%. For the same compound, the AC50 under setting [2] was 8.2 µM [falling, partial curve]. For the same compound, the AC50 under setting [1] is 13 µM [falling, partial curve].
With `Cc1ccc(CNS(=O)(=O)c2ccc([N+](=O)[O-])cc2)cc1`, the cell number change was determined as 15%. For the same compound, the AC50 under setting [1] was 0.651 µM [rising, full curve].
For `O=C(COC(=O)C1(c2ccc(F)cc2)CCCC1)N1CCNC1=O`, the cell number change is -7.21%. Moreover, the AC50 under setting [2] is 0.461 µM [falling, full curve]. The AC50 under setting [1] was 0.517 µM [falling, full curve].
For the compound `COCCCNc1nc2ccccc2nc1NS(=O)(=O)c1ccc(C)c(C)c1`, the cell number change came out at 34.9%. Besides, the AC50 under setting [2] was 14.6 µM [rising, partial curve, poor fit].
Turning to `CC(C)Cc1nc2sc3c(c2c(=O)n1N)CC(C)(C)OC3`, the cell number change was -31.1%. Also, the AC50 under setting [2] is 32.6 µM [falling, single point]. Under setting [1], the AC50 is 29.1 µM [falling, single point].
On to `CCN(CC)C(=O)Cn1cnc2sc(C)c(S(=O)(=O)N3CCC(C)CC3)c2c1=O`, for which the cell number change was -7.66%.
For the compound `Cc1cccn2c(=O)nc(SCC(=O)N3N=C(c4cccs4)CC3c3ccc(F)cc3)nc12` (centres undefined), the AC50 under setting [1] is 0.0058 µM [falling, full curve, poor fit].
`COc1ccc(C=O)cc1OC(=O)N1CCOCC1`: the cell number change is -0.901%. The AC50 under setting [1] was 1.3 µM [falling, full curve].
`Cc1cc(C(=O)OCC(N)=O)c(C)n1-c1ccccc1`: the cell number change was determined as 27.4%.
With `CCOC(=O)CN1CC23C=CC(O2)C(C(=O)NCc2ccc(C)cc2)C3C1=O` (centres undefined), the cell number change is -9.16%. The AC50 under setting [1] is 0.092 µM [rising, full curve, poor fit].
On to `Cc1snc(SCc2ccc(Cl)cc2)c1C#N`, for which the cell number change stood at 13.9%. In addition, the AC50 under setting [1] was 16.4 µM [rising, partial curve].
Consider `CCn1c(SCC(=O)n2nc(C)cc2C)nnc1-c1ccc2c(c1)OCO2`, for which the cell number change was -9.94%. The AC50 under setting [1] was 0.517 µM [falling, partial curve].
On to `CCN(CC)S(=O)(=O)c1ccc(-c2nnc(SCc3nnc(-c4ccc(C)cc4)o3)n2CC)cc1`, for which the cell number change is -3.32%. Under setting [1], the AC50 was 0.58 µM [rising, single point].
On to `COc1cccc(C2C(C(=O)c3ccc(C)o3)=C(O)C(=O)N2c2cc(C)on2)c1` (centres undefined), for which the cell number change worked out at 7.31%.
On to `CC(=O)Nc1ccc2c(c1)N(S(=O)(=O)c1cccs1)CCC2`, for which the cell number change was -16.8%. The AC50 under setting [2] is 1.84 µM [rising, partial curve].
Turning to `COc1ccccc1NC(=O)CSc1nc(C)c2c(c1C#N)CCCC2`, the cell number change was 58.6%. Besides, the AC50 under setting [2] is 29.1 µM [rising, single point].
As to `COc1ccccc1CNC(=O)Cn1nnnc1CN(C)C(C)C`, the cell number change is 16.8%. Further, under setting [1], the AC50 was 5.17 µM [rising, full curve].
For the compound `Cn1cc(/C=C2/SC(=O)N(CC(=O)Nc3ccc4c(c3)OCO4)C2=O)c2ccccc21`, the cell number change amounted to 18.7%. For the same compound, under setting [1], the AC50 was 32.6 µM [falling, single point].
Consider `C=CCn1c(=O)c(C(=O)Nc2ccccc2C)c(O)c2ccccc21`, for which, under setting [1], the AC50 is 23.1 µM [falling, partial curve].
On to `Nc1cc(N)nc(SCc2ccccc2)n1`, for which the AC50 under setting [1] is 6.51 µM [rising, single point].
In the case of `COc1ccc(NC(=O)C(c2ccc(C)cc2)N(C)C(=O)CNC(C)=O)cc1` (centres undefined), the cell number change worked out at 3.06%. Under setting [1], the AC50 was 23.1 µM [rising, single point].
